In paper PMC7862700:
This is a selection; strong and weak results do not stand in their true shares. For some of these results: At the low end of the ranking, values are background and their order means little. This is one part of the list. For some of these results: The exact form of the protein is not confirmed.

Legend:
ETS1 = molecular target: T1, ETS1 (UniProt P14921); test: DAPPL (digital affinity profiling via proximity ligation, sequencing); details: 10 mM Tris-HCl pH 7.5, 50 mM NaCl, 1 mM DTT, 4% glycerol, room temperature, 30 min; GST-TFs on glutathione beads, 16-mer random dsDNA library, 0.1% …; high values mean tight binding; double strand, one strand shown; scale: fold enrichment (6-mer frequency, TF over GST control)
T1 sequence: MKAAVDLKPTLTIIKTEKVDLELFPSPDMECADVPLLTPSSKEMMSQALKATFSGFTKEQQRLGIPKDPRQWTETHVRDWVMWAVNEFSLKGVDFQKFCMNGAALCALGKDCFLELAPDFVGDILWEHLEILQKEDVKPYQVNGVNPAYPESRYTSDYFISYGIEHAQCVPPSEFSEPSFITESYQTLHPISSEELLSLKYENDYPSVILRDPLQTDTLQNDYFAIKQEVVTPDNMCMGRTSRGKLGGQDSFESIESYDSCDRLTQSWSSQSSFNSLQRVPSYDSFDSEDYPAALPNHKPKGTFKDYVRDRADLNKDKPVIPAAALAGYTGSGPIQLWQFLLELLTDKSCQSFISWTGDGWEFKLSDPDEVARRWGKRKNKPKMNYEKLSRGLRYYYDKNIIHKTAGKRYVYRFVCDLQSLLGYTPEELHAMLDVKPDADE

SPDEF = molecular target: T2, SPDEF (UniProt O95238); test: as above; details: 10 mM Tris-HCl pH 7.5, 50 mM NaCl, 1 mM DTT, 4% glycerol, room temperature, 30 min; GST-TFs on glutathione beads, 16-mer random dsDNA library, 0.1% …; high values mean tight binding; double strand, one strand shown; scale: fold enrichment (6-mer frequency, TF over GST control)
T2 sequence: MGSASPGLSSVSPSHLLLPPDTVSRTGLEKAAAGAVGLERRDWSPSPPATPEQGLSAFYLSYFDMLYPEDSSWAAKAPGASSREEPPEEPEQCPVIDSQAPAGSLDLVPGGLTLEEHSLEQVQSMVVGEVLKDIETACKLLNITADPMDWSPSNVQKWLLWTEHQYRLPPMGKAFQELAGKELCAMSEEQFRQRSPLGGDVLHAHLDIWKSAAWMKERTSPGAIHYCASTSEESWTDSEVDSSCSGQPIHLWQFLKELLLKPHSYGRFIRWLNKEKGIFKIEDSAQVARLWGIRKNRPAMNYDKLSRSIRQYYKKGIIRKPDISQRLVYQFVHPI

Row | Sequence | binding signal (ETS1) | binding signal (SPDEF)
1 | TAGCAG | 0.975 | 0.964
2 | TCCGCC | 1.54 | 1.83
3 | CCCTTC | 1.4 | 1.38
4 | AGAAGT | 1.03 | 0.955
5 | TAAAGG | 1.01 | 0.925
6 | GGTAAC | 1.02 | 0.972
7 | CCTGGC | 1.06 | 0.957
8 | ACCATT | 1.07 | 1
9 | TTCTGG | 1.34 | 1.23
10 | AGATAA | 1.03 | 0.996
11 | CTCGTT | 1.38 | 1.27
12 | CTGCTC | 1.32 | 1.26
13 | CGAACC | 1.25 | 1.23
14 | CGCGCG | 0.959 | 0.965
15 | CACGAT | 1.33 | 1.26
16 | GTCCCC | 1.21 | 1.14
17 | CTGCGC | 1.39 | 1.12
18 | ATATAG | 1.25 | 1.14
19 | CGGCAC | 0.883 | 1.02
20 | GCATAC | 0.985 | 0.984
21 | GCCCCC | 1.14 | 0.962

Row | Sequence | binding signal (ETS1) | binding signal (SPDEF)
22 | ATTAAA | 1.17 | 1.14
23 | GCTGAC | 0.96 | 0.942
24 | CGTAGC | 1.06 | 0.987
25 | AACCTA | 1.11 | 1.08
26 | AGGCTT | 1.04 | 0.953
27 | CTGGAA | 1.21 | 1.16
28 | GTATGG | 1.07 | 0.938
29 | GTACTG | 1.09 | 1.03
30 | TGCGCC | 1.22 | 1.07
31 | TATAGA | 1.19 | 1.14
32 | TTGGTA | 1.14 | 1.23
33 | AATATA | 1.4 | 1.23
34 | TCGAAC | 0.954 | 0.885
35 | CACCCC | 1.29 | 1.24
36 | AGTCTC | 1.03 | 0.953
37 | TCCACT | 1.47 | 1.37
38 | TGCATA | 1.17 | 1.18
39 | TTGGGG | 1.2 | 1.17
40 | ATTCTT | 1.47 | 1.34
41 | AATCAC | 1.15 | 1.05

Quoted from the listing.
binding signal (ETS1), TTGGTA is entered as 1.14
binding signal (SPDEF), GTATGG is entered as 0.938
